Measured values reported in publication PMC11843152.
These are yes or no findings as the source states them, for the method shown. Binding seen in cells or lysates may run through a third protein. Some binding calls cover weakened binding; strength is not graded here.

By UniProt entry, the sequences of proteins in these tests, tags left out.
UniProt Q01094: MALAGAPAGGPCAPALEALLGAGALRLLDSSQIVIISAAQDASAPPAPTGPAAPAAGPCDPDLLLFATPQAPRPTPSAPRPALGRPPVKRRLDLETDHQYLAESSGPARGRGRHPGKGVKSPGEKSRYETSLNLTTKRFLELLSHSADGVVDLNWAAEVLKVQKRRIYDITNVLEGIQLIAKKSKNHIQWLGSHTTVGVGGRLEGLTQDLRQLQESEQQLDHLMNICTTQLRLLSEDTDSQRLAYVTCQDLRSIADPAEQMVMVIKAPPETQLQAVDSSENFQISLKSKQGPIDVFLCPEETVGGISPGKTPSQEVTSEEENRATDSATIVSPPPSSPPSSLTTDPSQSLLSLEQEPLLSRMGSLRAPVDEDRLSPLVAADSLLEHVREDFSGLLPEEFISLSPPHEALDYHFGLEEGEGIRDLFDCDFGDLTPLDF
UniProt Q15003: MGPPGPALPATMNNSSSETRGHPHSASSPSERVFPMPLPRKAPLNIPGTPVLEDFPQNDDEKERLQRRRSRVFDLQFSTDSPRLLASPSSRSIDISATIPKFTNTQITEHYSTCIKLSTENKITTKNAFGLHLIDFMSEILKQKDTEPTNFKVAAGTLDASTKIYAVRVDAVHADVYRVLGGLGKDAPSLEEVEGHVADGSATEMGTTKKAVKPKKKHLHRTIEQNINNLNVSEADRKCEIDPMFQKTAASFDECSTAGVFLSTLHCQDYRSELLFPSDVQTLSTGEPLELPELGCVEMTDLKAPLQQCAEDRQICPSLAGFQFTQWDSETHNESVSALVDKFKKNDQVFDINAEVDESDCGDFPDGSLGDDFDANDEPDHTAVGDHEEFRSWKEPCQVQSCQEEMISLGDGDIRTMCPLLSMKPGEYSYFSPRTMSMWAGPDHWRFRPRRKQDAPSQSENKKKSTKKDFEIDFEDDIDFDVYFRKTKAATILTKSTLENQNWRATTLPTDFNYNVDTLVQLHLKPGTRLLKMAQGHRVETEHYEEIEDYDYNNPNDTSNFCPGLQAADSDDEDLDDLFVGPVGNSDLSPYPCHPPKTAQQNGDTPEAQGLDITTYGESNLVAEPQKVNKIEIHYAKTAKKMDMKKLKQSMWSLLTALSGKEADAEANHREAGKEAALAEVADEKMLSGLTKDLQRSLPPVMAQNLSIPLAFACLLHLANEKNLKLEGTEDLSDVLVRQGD

Target: E2F1 (transcription factor E2F1) (human (endogenous in LNCaP and PC3)) (UniProt Q01094)
Experiment: co-IP; endogenous proteins in LNCaP and PC3 cell lysates (Cell Lysis Buffer #9803); anti-NCAPH or anti-E2F1 antibody overnight at 4 °C, Protein A + G Agarose; rabbit IgG as negative control

“NCAPH (non-SMC condensin I complex subunit H) (from UniProt Q15003 1-741)” was tested. Which binding did it give?
Its binding is “binds”.
